PubChem BioAssay AID652243, Drosophila RNAi Screening Center | 2013

- Aim: 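Knock-downs that decrease or increase androgen receptor reporter signal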 (primary screen)
- Cells: Drosophila S2R+ cells
- Reagent: long dsRNA against Drosophila genes
- Duration: 72 h (48 h, then 24 h hormone)
- Challenge: synthetic androgen R1881 at 10 nM for 24 h
- Measurement: 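Per-well raw luminescence of the androgen-driven firefly reporter and of the Renilla control, two replicates each, without normalisation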
- Direction: firefly reporter light: higher = more light from androgen-responsive reporter; Renilla control light: higher = more constitutive control signal (cell number, transfection)
- Active means: 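Hit when the log firefly-to-Renilla ratio dropped or increased by a fixed fold versus the mean of GFP or LacZ controls across duplicate plates; lowering cut given as 1.5 and as 3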
- Calls: active = hit: reporter lowered or raised; inactive = no hit
In all, the deposit lists about 24,000 reagents; shown is a random part of those with a known target gene and a result. Of all reagents, 246 (1%) were called active. 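Plates not normalised; calls are printed but the firefly/Renilla ratio behind them is not deposited; fold cut for lowering reported inconsistently.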 Raw values vary from plate to plate and are shown uncorrected. Not stated in the record: the amount of reagent.

With knock-down of Spase25 (Spase 25-subunit) [DRSC19776], the screen gave firefly reporter light, replicate 1 = 1.27e5; firefly reporter light, replicate 2 = 1.66e5; Renilla control light, replicate 1 = 7.01e5; Renilla control light, replicate 2 = 8.27e5; inactive.
For Or19a (Odorant receptor 19a) [DRSC20684] the deposit lists firefly reporter light, replicate 1 = 1.45e5; firefly reporter light, replicate 2 = 99983; Renilla control light, replicate 1 = 2.09e5; Renilla control light, replicate 2 = 2.02e5; inactive.
After knock-down of CG33784 [DRSC38822], the screen gave firefly reporter light, replicate 1 = 9.08e5; firefly reporter light, replicate 2 = 8.48e5; Renilla control light, replicate 1 = 1.44e6; Renilla control light, replicate 2 = 1.80e6; inactive.
Against CG12985 [DRSC19505] the deposit lists firefly reporter light, replicate 1 = 8.02e5; firefly reporter light, replicate 2 = 8.23e5; Renilla control light, replicate 1 = 3.48e6; Renilla control light, replicate 2 = 3.16e6; inactive.
With knock-down of CG12985 [DRSC26985], the record shows firefly reporter light, replicate 1 = 3.52e5; firefly reporter light, replicate 2 = 3.79e5; Renilla control light, replicate 1 = 9.25e5; Renilla control light, replicate 2 = 6.24e5; inactive.
Knock-down of CG33477 [DRSC22934] gave: firefly reporter light, replicate 1 = 4.01e5; firefly reporter light, replicate 2 = 7.96e5; Renilla control light, replicate 1 = 1.14e6; Renilla control light, replicate 2 = 1.80e6; inactive.
After knock-down of GstD6 (Glutathione S transferase D6) [DRSC16687], the record shows firefly reporter light, replicate 1 = 1.42e5; firefly reporter light, replicate 2 = 1.47e5; Renilla control light, replicate 1 = 2.36e6; Renilla control light, replicate 2 = 2.29e6; inactive.
Silencing of GstD6 (Glutathione S transferase D6) [DRSC24208] came out at: firefly reporter light, replicate 1 = 3.79e5; firefly reporter light, replicate 2 = 2.94e5; Renilla control light, replicate 1 = 5.34e5; Renilla control light, replicate 2 = 3.47e5; inactive.
For Idgf5 (Imaginal disc growth factor 5) [DRSC06919], the values are firefly reporter light, replicate 1 = 4.20e5; firefly reporter light, replicate 2 = 4.22e5; Renilla control light, replicate 1 = 9.04e5; Renilla control light, replicate 2 = 7.16e5; inactive.
Silencing of Idgf5 (Imaginal disc growth factor 5) [DRSC26392] resulted in: firefly reporter light, replicate 1 = 3.12e5; firefly reporter light, replicate 2 = 3.04e5; Renilla control light, replicate 1 = 5.87e5; Renilla control light, replicate 2 = 5.78e5; inactive.
Silencing of CG17760 [DRSC06694] came out at: firefly reporter light, replicate 1 = 3.10e5; firefly reporter light, replicate 2 = 2.80e5; Renilla control light, replicate 1 = 1.35e6; Renilla control light, replicate 2 = 2.24e6; inactive.
Against CG17760 [DRSC25493], the values are firefly reporter light, replicate 1 = 1.12e6; firefly reporter light, replicate 2 = 1.04e6; Renilla control light, replicate 1 = 9.58e5; Renilla control light, replicate 2 = 9.86e5; inactive.
After knock-down of CG4459 [DRSC15582], the record shows firefly reporter light, replicate 1 = 3.91e5; firefly reporter light, replicate 2 = 3.44e5; Renilla control light, replicate 1 = 3.27e6; Renilla control light, replicate 2 = 3.53e6; inactive.
Against CG13585 [DRSC04221] the deposit lists firefly reporter light, replicate 1 = 4.92e5; firefly reporter light, replicate 2 = 4.06e5; Renilla control light, replicate 1 = 1.96e6; Renilla control light, replicate 2 = 2.38e6; inactive.
After knock-down of ric8a [DRSC18093] the results were firefly reporter light, replicate 1 = 81913; firefly reporter light, replicate 2 = 99941; Renilla control light, replicate 1 = 5.58e5; Renilla control light, replicate 2 = 5.37e5; inactive.
Knock-down of ric8a [DRSC24387] resulted in: firefly reporter light, replicate 1 = 5.52e5; firefly reporter light, replicate 2 = 5.69e5; Renilla control light, replicate 1 = 1.05e6; Renilla control light, replicate 2 = 8.30e5; inactive.
Against Cyp4e1 (Cytochrome P450 4e1) [DRSC07370], the entry reads firefly reporter light, replicate 1 = 2.41e5; firefly reporter light, replicate 2 = 3.26e5; Renilla control light, replicate 1 = 1.67e6; Renilla control light, replicate 2 = 1.40e6; inactive.
Knock-down of Cyp4e1 (Cytochrome P450 4e1) [DRSC27154] came out at: firefly reporter light, replicate 1 = 2.91e5; firefly reporter light, replicate 2 = 2.89e5; Renilla control light, replicate 1 = 5.77e5; Renilla control light, replicate 2 = 5.60e5; inactive.
With knock-down of ppk25 (pickpocket 25) [DRSC04973], the screen gave firefly reporter light, replicate 1 = 2.67e5; firefly reporter light, replicate 2 = 2.01e5; Renilla control light, replicate 1 = 2.03e6; Renilla control light, replicate 2 = 1.30e6; inactive.
For ppk25 (pickpocket 25) [DRSC27513], the values are firefly reporter light, replicate 1 = 2.70e5; firefly reporter light, replicate 2 = 2.24e5; Renilla control light, replicate 1 = 2.83e5; Renilla control light, replicate 2 = 6.06e5; inactive.
Silencing of CG13931 [DRSC08400] gave: firefly reporter light, replicate 1 = 82440; firefly reporter light, replicate 2 = 74650; Renilla control light, replicate 1 = 1.18e6; Renilla control light, replicate 2 = 1.29e6; inactive.
Depletion of CG13931 [DRSC25534] resulted in: firefly reporter light, replicate 1 = 9.05e5; firefly reporter light, replicate 2 = 9.02e5; Renilla control light, replicate 1 = 9.73e5; Renilla control light, replicate 2 = 9.76e5; inactive.
Depletion of CarT (Carcinine transporter) [DRSC03196] resulted in: firefly reporter light, replicate 1 = 9.15e5; firefly reporter light, replicate 2 = 8.53e5; Renilla control light, replicate 1 = 1.14e6; Renilla control light, replicate 2 = 1.32e6; inactive.
For CarT (Carcinine transporter) [DRSC27070] the deposit lists firefly reporter light, replicate 1 = 2.65e5; firefly reporter light, replicate 2 = 2.11e5; Renilla control light, replicate 1 = 6.59e5; Renilla control light, replicate 2 = 4.95e5; inactive.
Knock-down of CG10222 [DRSC09714] resulted in: firefly reporter light, replicate 1 = 3.81e5; firefly reporter light, replicate 2 = 2.30e5; Renilla control light, replicate 1 = 3.58e6; Renilla control light, replicate 2 = 2.75e6; inactive.
Against CG10222 [DRSC28067], the values are firefly reporter light, replicate 1 = 5.13e5; firefly reporter light, replicate 2 = 6.62e5; Renilla control light, replicate 1 = 1.44e6; Renilla control light, replicate 2 = 1.20e6; inactive.
Against CG12177 [DRSC19437], the entry reads firefly reporter light, replicate 1 = 4.96e5; firefly reporter light, replicate 2 = 5.09e5; Renilla control light, replicate 1 = 3.53e6; Renilla control light, replicate 2 = 3.51e6; inactive.
After knock-down of CG12177 [DRSC21524] the results were firefly reporter light, replicate 1 = 5.58e5; firefly reporter light, replicate 2 = 4.77e5; Renilla control light, replicate 1 = 2.67e6; Renilla control light, replicate 2 = 2.23e6; inactive.
After knock-down of CG12177 [DRSC29474], the record shows firefly reporter light, replicate 1 = 5.78e5; firefly reporter light, replicate 2 = 5.33e5; Renilla control light, replicate 1 = 9.32e5; Renilla control light, replicate 2 = 9.32e5; inactive.
